Measurements as given in US20070036810A1, “Cyclic amp response element activator proteins and uses related thereto” (priority 2003, published 2007).
At least one structure is not confirmed: it was looked up by name or label, or the drawing left a doubt.

System: IL-8 promoter
Test: pIL-8-Luc reporter under elevated cAMP in HEK 293 cells
Type: cell-based
Details: IBMX pre-treatment, forskolin 5 μM for 16 hours

## C=C[C@@]1(C)CC(=O)[C@]2(O)[C@@]3(C)[C@@H](O)CCC(C)(C)[C@@H]3[C@H](O)[C@H](OC(C)=O)[C@@]2(C)O1 [forskolin]
  induction of the IL-8 reporter: weakly induced
